PubChem BioAssay AID588590 (National Center for Advancing Translational Sciences (NCATS), 2011)
Out of some 390,000 compounds screened, about 4,000 (1%) were called active. Inconclusive results, whose numbers are uncertain, are shown with a selection of clear calls. Calls come from the whole dose curve; as a rule, active = well fitted inhibition curve with a large enough effect; inconclusive = small, poorly fitted or top-dose-only effect, or another doubt; inactive = no such curve, though single readings can be large or run the other way. Potencies beside an inconclusive call are fits to weak or partial responses and may not hold up.

Amino acid sequences for entries named in this document (tags omitted). A change or cut given only in a name is not applied to a line headed by its entry.
UniProt Q9UNA4: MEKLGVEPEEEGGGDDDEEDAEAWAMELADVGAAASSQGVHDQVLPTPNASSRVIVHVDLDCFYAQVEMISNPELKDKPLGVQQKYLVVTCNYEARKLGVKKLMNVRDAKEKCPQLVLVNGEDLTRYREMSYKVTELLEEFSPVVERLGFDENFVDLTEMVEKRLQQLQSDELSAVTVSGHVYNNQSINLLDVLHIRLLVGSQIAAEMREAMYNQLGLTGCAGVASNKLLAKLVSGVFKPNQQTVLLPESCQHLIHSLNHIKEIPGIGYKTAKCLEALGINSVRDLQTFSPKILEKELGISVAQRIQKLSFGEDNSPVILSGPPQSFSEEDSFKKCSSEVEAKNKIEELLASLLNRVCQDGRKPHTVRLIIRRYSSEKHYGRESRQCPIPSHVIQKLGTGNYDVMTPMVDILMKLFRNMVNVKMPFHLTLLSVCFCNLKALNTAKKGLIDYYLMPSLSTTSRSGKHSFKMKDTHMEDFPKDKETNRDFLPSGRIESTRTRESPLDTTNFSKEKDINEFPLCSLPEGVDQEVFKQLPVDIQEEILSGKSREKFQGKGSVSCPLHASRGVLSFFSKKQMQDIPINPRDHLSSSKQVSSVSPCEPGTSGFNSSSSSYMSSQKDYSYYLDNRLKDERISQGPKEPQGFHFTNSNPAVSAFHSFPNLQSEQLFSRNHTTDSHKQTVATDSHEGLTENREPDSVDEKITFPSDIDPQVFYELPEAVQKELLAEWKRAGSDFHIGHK

What follows are molecules tested against DNA polymerase iota (Homo sapiens) (UniProt Q9UNA4) (assay: qHTS for Inhibitors of Polymerase Iota). Settings: Pol iota fluorescent replication assay, 10 min; series mostly up to 115 µM; activity, negative = inhibition: at the top concentration.
In short: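 Fluorescent replication assay read twice, at 0 min and 10 min after adding 50 nM (final) substrate. Enzyme (10 nM) and compounds were first incubated 15 min at room temperature; enzyme-free buffer wells were negative controls.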
Potency is the fitted concentration of half-maximal effect.

Structure (SMILES) | activity, negative = inhibition | Potency
CC1(C)CC(=O)C2=C(C1)NC(=O)NC2c1ccccc1 (centres undefined) | inactive: -0.188% | 
O=C(/C=C/c1ccco1)Nc1ccc(F)cc1 |  | inconclusive: 89.1 µM [inhibitor, single point]
COC(=O)c1cn(Cc2ccccc2C)nn1 |  | inconclusive: 89.1 µM [inhibitor, single point]
COc1ccccc1C1NC(c2ccc3c(c2)OCO3)=CC(c2ccccc2O)N1 (centres undefined) |  | inconclusive: 17.8 µM [inhibitor, partial curve, poor fit]
COc1cccc2c1Oc1ncccc1N(C(=O)CCC(=O)NCCC(C)C)C2 | inactive: -9.08% | 
CCCCCCC(=O)Nc1nc(C)c(-c2csc(Nc3ccc(Cl)cc3)n2)s1 |  | inconclusive: 7.94 µM [inhibitor, partial curve]
NC(=O)[C@@H]1CC2(CC(c3cccc(NC(=O)CC(c4ccccc4)c4ccccc4)c3)=NO2)CN1C(=O)c1ccc(Cl)cc1 (some centres undefined) |  | inconclusive: 3.55 µM [inhibitor, partial curve, poor fit]
COc1cccc(Cn2c(N)c(C#N)c3nc4ccccc4nc32)c1OC |  | inconclusive: 31.6 µM [inhibitor, single point]
N#Cc1c(-c2ccccc2)cc(C2CC2)nc1N |  | inconclusive: 56.2 µM [inhibitor, partial curve, poor fit]
CN1c2ccc([N+](=O)[O-])cc2C(C)(C)C12C=Cc1cc(C(=O)O)ccc1O2 (centres undefined) |  | inconclusive: 12.6 µM [inhibitor, partial curve, poor fit]
O=C(O)c1ncn(Cc2ccccc2)c1C(=O)O |  | inconclusive: 15.8 µM [inhibitor, partial curve, poor fit]
CCOC(=O)c1c(NC(=O)/C=C/C(=O)O)sc(C)c1-c1ccc(C(C)(C)C)cc1 |  | inconclusive: 31.6 µM [inhibitor, partial curve, poor fit]
COc1cc2c(cc1OC)C(=Cc1ccc(N(C)C)cc1)C=C2 |  | inconclusive: 44.7 µM [inhibitor, partial curve, poor fit]
COc1ccccc1NC(=O)Nc1nc(CC(=O)N2CCN(c3ccccc3F)CC2)cs1 |  | inconclusive: 63.1 µM [inhibitor, partial curve, poor fit]
COc1ccc(C(CC(=O)N2CCN(c3ccccc3)CC2)c2c(OC)cc(OC)c3ccc(=O)oc23)cc1 (centres undefined) |  | inconclusive: 70.8 µM [inhibitor, single point]
CC(=O)Nc1ccc(NC(=O)CS(=O)(=O)c2cn(CC(=O)N3CCCC3)c3ccccc23)cc1 |  | inconclusive: 44.7 µM [inhibitor, partial curve, poor fit]
CC1=C(C(=O)OCc2ccccc2)C(c2ccc(C#N)cc2)NC(=O)N1CCCC(=O)O (centres undefined) | inactive: -11.2% | 
CCC(=O)N1c2ccccc2CC1C(=O)NCc1cccc(OC)c1OC (centres undefined) |  | inconclusive: 89.1 µM [inhibitor, single point]
O=C(NCCN1CCCCC1)c1cccc2c1C(=O)c1ccc(N3CCCC3)cc1S2(=O)=O |  | inconclusive: 39.8 µM [inhibitor, full curve, poor fit]
Cc1nn(-c2ccccc2)c2nc(=O)n(-c3ccccc3)cc12 |  | inconclusive: 31.6 µM [inhibitor, single point]
Cc1ccc(C(C[N+](=O)[O-])c2c(C)[nH]n(-c3ccccc3)c2=O)cc1 (centres undefined) |  | active: 1.12 µM
CCOc1ccccc1NC(=O)C1CCN(S(=O)(=O)c2ccc3[nH]c(=O)ccc3c2)CC1 |  | inconclusive: 3.98 µM [inhibitor, partial curve, poor fit]

Not a retest: four of the compounds above.
Structure (SMILES) | activity, negative = inhibition | Potency
CN1c2ccc([N+](=O)[O-])cc2C(C)(C)C12C=Cc1cc(C(=O)O)ccc1O2 (centres undefined) |  | inconclusive: 12.6 µM [inhibitor, partial curve, poor fit]
O=C(O)c1ncn(Cc2ccccc2)c1C(=O)O |  | inconclusive: 15.8 µM [inhibitor, partial curve, poor fit]
CCOC(=O)c1c(NC(=O)/C=C/C(=O)O)sc(C)c1-c1ccc(C(C)(C)C)cc1 |  | inconclusive: 31.6 µM [inhibitor, partial curve, poor fit]
COc1cc2c(cc1OC)C(=Cc1ccc(N(C)C)cc1)C=C2 |  | inconclusive: 44.7 µM [inhibitor, partial curve, poor fit]

Next part:

Structure (SMILES) | activity, negative = inhibition | Potency
CC(=O)NN1C(=O)/C(=C\c2ccccc2)SC1=S |  | inconclusive: 70.8 µM [inhibitor, partial curve]
Cc1ccc(-c2c(C#N)c(N)nc3c2CCCC3)s1 |  | inconclusive: 14.1 µM [inhibitor, full curve, poor fit]
C[N+](C)(C)CCOP(=O)(O)OP(=O)([O-])OC[C@H]1O[C@@H](n2ccc(N)nc2=O)[C@H](O)[C@@H]1O | inactive: 10.4% | 
COC(=O)c1nc(NC(=O)C(C)(C)C)n[nH]1 |  | active: 79.4 µM
N#Cc1ccccc1NC(=O)C(=O)NCCc1csc(-c2ccc(C(F)(F)F)cc2)n1 | inactive: 27% | 
Cc1ccc(-c2nn(-c3ccccc3)c3c2cnc2ccccc23)cc1C |  | inconclusive: 89.1 µM [inhibitor, single point]
CCOc1ccc(C(=O)c2ccccc2C(=O)O)cc1OCC | inactive: 16.6% | 
Cc1ccn2c(=O)nc(SCC(=O)Nc3ccc4c(c3)OCCO4)nc2c1 |  | active: 56.2 µM
Cc1cc(C2(O)C(=O)Nc3ccccc32)ccc1F (centres undefined) |  | inconclusive: 89.1 µM [inhibitor, partial curve, poor fit]
C[C@](N)(Cc1ccc(O)cc1)C(=O)O |  | inconclusive: 0.0045 µM [inhibitor, full curve]
COc1ccc(OC)c(NC(=O)c2csc(Cl)c2OC)c1 | inactive: 19.6% | 
COc1cc(NC(=O)c2cccnc2)c(OC)cc1NC(=O)c1ccc(Br)cc1 |  | inconclusive: 25.1 µM [inhibitor, single point]
Cc1ccc(-c2nnc(NC(=O)c3c(F)cccc3Cl)s2)cc1 |  | inconclusive: 10 µM [inhibitor, partial curve, poor fit]
Cc1cc(C)cc(NS(=O)(=O)c2ccc3[nH]cc(C(=O)NCCc4ccccc4)c(=O)c3c2)c1 | inactive: -1.41% | 
Cc1ccc(C2C3CSCC=C3C(C#N)=C(N)C2(C#N)C#N)cc1 (centres undefined) |  | inconclusive: 10 µM [inhibitor, partial curve, poor fit]
S=c1[nH]nc(-c2cccs2)n1/N=C/c1cn(-c2ccccc2)nc1-c1ccc(Cl)cc1 |  | inconclusive: 25.1 µM [inhibitor, single point]
Cc1cc(C(=O)OCC(=O)Nc2cc(C)on2)c2ccccc2n1 |  | inconclusive: 56.2 µM [inhibitor, partial curve, poor fit]
Cc1ccc([C@@H]2CC=C(C(=O)O)[C@H](c3ccc(Br)cc3)N2S(=O)(=O)c2ccc(C)cc2)cc1 |  | inconclusive: 0.891 µM [inhibitor, full curve, poor fit]
Cc1cc(C)n2nc(S(=O)(=O)NC3CCCCC3)nc2n1 | inactive: 17% | 
COCCNC(=O)CSc1nc2sccc2c(=O)n1-c1ccccc1 |  | inconclusive: 22.4 µM [inhibitor, full curve]
CC(O)[C@H]1CNCCN1CCc1cccc2ccccc12 (some centres undefined) |  | inconclusive: 25.1 µM [inhibitor, single point]
COc1cc(NC(=O)CSc2nc3ccccc3n2-c2ccccc2)c(C)cc1[N+](=O)[O-] |  | inconclusive: 100 µM [inhibitor, single point]

Structure (SMILES) | activity, negative = inhibition | Potency
Fc1ccc(-c2ccnc3nc(-n4cccc4)nn23)cc1 |  | active: 79.4 µM
Cc1ccc2c(Cl)c(C(=O)NCC3CCCO3)sc2c1 (centres undefined) |  | inconclusive: 112 µM [inhibitor, partial curve, poor fit]
Cc1ccc(C)c(-n2c3nc(=O)n(C)c(=O)c-3cc3ccccc32)c1 | inactive: 9.77% | 
COc1ccc(-n2cnc3c(sc4nccc(N(C)C)c43)c2=O)cc1 |  | inconclusive: 100 µM [inhibitor, single point]
O=C1N=C2SCCN2/C1=C\c1ccc(Cl)cc1 |  | inconclusive: 17.8 µM [inhibitor, partial curve, poor fit]
COc1cccc(-c2nc(CS(=O)(=O)CC(=O)N3CCOCC3)c(C)o2)c1 |  | inconclusive: 89.1 µM [inhibitor, single point]
O=C(N/N=C/C=C/c1ccco1)c1ccccc1Cl |  | inconclusive: 14.1 µM [inhibitor, full curve, poor fit]
O=C(COc1cc2oc(=O)c3c(c2cc1Cl)CCC3)NCc1ccccn1 | inactive: -15.9% | 
Cc1cccc(-n2c(Cc3cc(=O)[nH]c(=O)[nH]3)nnc2SCC(=O)NCc2ccco2)c1 |  | inconclusive: 20 µM [inhibitor, partial curve, poor fit]
O=Cc1ccc(OC(=O)CCCCC(=O)Oc2ccc(C=O)cc2)cc1 |  | inconclusive: 44.7 µM [inhibitor, partial curve]
Cc1cc(=O)[nH]c(SCC(=O)C23CC4CC(CC(C4)C2)C3)c1C#N |  | inconclusive: 39.8 µM [inhibitor, single point]
O=C(COc1ccc(Cl)cc1)Nc1nnc(S(=O)(=O)N2CCCCCC2)s1 |  | inconclusive: 56.2 µM [inhibitor, partial curve, poor fit]
COC(=O)c1ccccc1NC(=O)CN1C(=O)COc2ccc(Cl)cc21 |  | inconclusive: 89.1 µM [inhibitor, single point]
CCOC(=O)C1=CN(Cc2ccc(OC)cc2)C=C(C(=O)OCC)C1c1cccs1 |  | inconclusive: 100 µM [inhibitor, single point]
Clc1ccc2c(c1)-c1nnc(Br)n1-c1ccccc1S2 |  | inconclusive: 4.47 µM [inhibitor, full curve, poor fit]
Cc1cc(C(=O)OCC(=O)NCc2ccccc2)c2ccccc2n1 | inactive: 22% | 
N#C/C(=C\c1cccnc1)C(=O)Nc1ccccc1[N+](=O)[O-] | inactive: -27.8% | 
Nc1c(S(=O)(=O)c2ccccc2)c2nc3ccccc3nc2n1/N=C/c1ccco1 |  | inconclusive: 20 µM [inhibitor, partial curve]
Cc1noc(C)c1C(=O)Nc1cc(Cl)ccc1N1CCOCC1 |  | inconclusive: 0.631 µM [inhibitor, full curve, poor fit]
CC(=O)Nc1cccc(/C(C)=N/NC(=O)c2ccc(NS(=O)(=O)c3cccs3)cc2)c1 |  | inconclusive: 22.4 µM [inhibitor, partial curve, poor fit]
